## Small-molecule microarray binding calls

Calls as published in the ROBIN set (doi:10.1002/anie.202211358).

Oligonucleotides screened, 5′ to 3′:
TPP: TPP riboswitch RNA three-way junction, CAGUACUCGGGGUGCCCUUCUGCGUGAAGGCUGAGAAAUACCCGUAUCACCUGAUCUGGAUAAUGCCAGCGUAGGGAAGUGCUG. About 160 hits among about 24,000 compounds.
PreQ1: PreQ1 riboswitch RNA pseudoknot, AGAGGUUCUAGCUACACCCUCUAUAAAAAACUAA. From B. subtilis. About 170 hits among about 24,000 compounds.
SAM-II: SAM-II riboswitch RNA pseudoknot, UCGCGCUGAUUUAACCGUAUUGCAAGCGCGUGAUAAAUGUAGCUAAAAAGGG. About 200 hits among about 21,000 compounds.

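Each compound is printed as two spots on a slide made to bind it covalently, so it has no test concentration; the read-out is fluorescence of the bound, labelled oligonucleotide. For the PreQ1, TPP and SAM-II riboswitches the laboratory earlier reported (doi:10.1038/s41467-019-09493-3) 1 µM RNA, 2 h, and a rule that included a mean Z-score above 3 (spot signal-to-noise against the whole library), a score well above that on a control array, and duplicate spots agreeing (coefficient of variation under 100). The data file gives only the calls; its cut-offs may differ, and compounds hitting several targets are kept. A missing hit is not proof of no binding, and a hit is not a measured affinity.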
A compound is marked hit if it was called a hit and no hit if it was screened but was not.
This is an unselected part of the compounds tested.
A target missing from an entry has no call listed here.

* Nc1ccnc(N2CCC3(CC2)CC(C(=O)O)N(C(=O)C2CC2)C3)n1 (centres undefined) : TPP: no hit; PreQ1: no hit; SAM-II: no hit
* Nc1cc(N)cc(Sc2ccccc2)c1 : TPP: no hit; PreQ1: no hit; SAM-II: no hit
* NCc1nnc(-c2ccccc2)o1 : TPP: no hit; PreQ1: no hit; SAM-II: no hit
* N#CCCCCN1CCCC1 : TPP: no hit; PreQ1: no hit; SAM-II: no hit
* CCCCNc1nc2ccccc2c2nc(CCc3c(C)n[nH]c3C)nn12 : TPP: no hit; PreQ1: no hit
* O=C1OCc2cc(NC(=O)N3CCC4(CC3)c3ccccc3CC4O)ccc21 (centres undefined) : TPP: no hit; PreQ1: no hit; SAM-II: no hit
* CN1CC(=O)N2CCN(Cc3ccc(C#CCO)s3)CC2C1=O (centres undefined) : TPP: no hit; PreQ1: no hit; SAM-II: no hit
* COc1ccc([S+](=O)([O-])N(CCO)c2ccccc2CN(C)C(=O)C=Cc2ccc(Cl)cc2)cc1 : TPP: no hit; PreQ1: no hit; SAM-II: no hit
* Nc1c(-c2nc(-c3ccccc3)no2)nnn1-c1ccc(Br)cc1 : TPP: no hit; PreQ1: no hit
* Nc1c(-c2ccc(Cl)cc2)nnn1-c1cccc(C(F)(F)F)c1 : TPP: no hit; PreQ1: no hit; SAM-II: no hit
* COc1ccc(C(=O)N2CC[C@H](CO)[C@H](O)C2)c(C)c1 : TPP: no hit; PreQ1: no hit; SAM-II: no hit
* CC(C)c1ccc(NS(=O)(=O)c2cc(Br)cnc2N)cc1 : TPP: no hit; PreQ1: no hit
* Cn1nnnc1SCCn1cc(-c2ccc(CO)o2)nn1 : TPP: no hit; PreQ1: no hit; SAM-II: no hit
* CCOC(=O)c1c(N)sc2c1CCCC2 : TPP: no hit; PreQ1: no hit; SAM-II: no hit
* Cc1cc(O)c(C(C)C)cc1NC(=O)Nc1cccc2ccccc12 : TPP: no hit; PreQ1: no hit; SAM-II: no hit
* CCCCNc1nc(CCCC)c2c(c1C#N)CC(C)(C)OC2 : TPP: no hit; PreQ1: no hit; SAM-II: no hit
* Oc1ccc(C2CCN(c3ccnc4ccccc34)CC2)cc1O : TPP: no hit; PreQ1: no hit; SAM-II: no hit
* CC(=O)c1ccc(C(=O)N2CCN(Cc3ccccc3CO)CC2)s1 : TPP: no hit; PreQ1: no hit; SAM-II: no hit
* N#CC1=C(N)N(c2ccccc2)C2=C(C(=O)OC2)C12C(=O)N(Cc1ccccc1Cl)c1ccccc12 (centres undefined) : TPP: no hit; PreQ1: no hit; SAM-II: no hit
* CCN(CC)CCNC(=O)c1c(C)[nH]c(C=C2C(=O)Nc3ccc(F)cc32)c1C : TPP: no hit; PreQ1: no hit; SAM-II: no hit
* Cc1nn(-c2ccccc2)c2c1C1(C(=O)Nc3ccc(Cl)cc31)C(C#N)=C(N)O2 (centres undefined) : TPP: no hit; PreQ1: no hit; SAM-II: no hit
* O=C(O)c1cn(C2CC2)c2cc(N3CCNCC3)c(F)cc2c1=O : TPP: no hit; PreQ1: no hit; SAM-II: no hit
* CCOC(=O)c1sc2nc3c(cc2c1N)COC(C)(CC)C3 (centres undefined) : TPP: no hit; PreQ1: no hit; SAM-II: no hit
* NCc1cn2ccsc2n1 : TPP: no hit; PreQ1: no hit; SAM-II: no hit
* N#Cc1c(N)nc2c(c1-c1c[nH]nc1C1CCCCC1)CC(N)CC2 (centres undefined) : TPP: no hit; PreQ1: no hit; SAM-II: no hit
* CCOC(=O)C1CCCN(c2c(NCCc3ccc(C)cc3)c(=O)c2=O)C1 (centres undefined) : TPP: no hit; PreQ1: no hit
* CCOC(=O)C1(C)C=C(Nc2ccc(Cl)cc2)C(=O)N1c1ccccc1 (centres undefined) : TPP: no hit; PreQ1: no hit; SAM-II: no hit
* COc1ccc2c(C)cc(C)nc2n1 : TPP: no hit; PreQ1: no hit; SAM-II: no hit
* Nc1ccc2nc(SCC(=O)c3ccccc3)sc2c1 : TPP: no hit; PreQ1: no hit; SAM-II: no hit
* Cc1cccc(N2CCN(CC(O)COc3ccc(Cl)cc3)CC2)c1 (centres undefined) : TPP: no hit; PreQ1: no hit; SAM-II: no hit
* Cc1nc(CC(=O)NC(c2nnc3n2CCNCC3)C(C)C)c(C)s1 (centres undefined) : TPP: no hit; PreQ1: no hit; SAM-II: no hit
* O=C(N[C@@H]1CCN(Cc2cc3ccccc3o2)C[C@H]1O)c1ccncc1 : TPP: no hit; PreQ1: no hit; SAM-II: no hit
* CN(CCO)c1nc2c(c(=O)n(Cc3ccc(Cl)cc3)c(=O)n2C)n1C : TPP: no hit; PreQ1: no hit; SAM-II: no hit
* CC1(C)Nc2ccccc2N(CC(=O)N2CCOCC2)C1=O : TPP: no hit; PreQ1: no hit; SAM-II: no hit